Measured values: patent US20220389230A1, “BLAST FURNACE SLAG-TYPE PAINT” (FUKKO CO., LTD., priority 2019, published 2022)

test: Corrosiveness of alkaline substances to aluminum, change in appearance after 24 hours; parameters: key: No change; ?: Slight discoloration; x: Discoloration; xx: Dissolution; conditions: not given

SMILES | Corrosiveness: Aluminum sash frame (with anodized film)
O=C([O-])[O-].[Na+].[Na+] [sodium carbonate] | o
[K+].[OH-] [Potassium hydroxide] | xx
[Ca+2].[OH-].[OH-] [Calcium hydroxide] | x

same assay, conditions: spot contact, appearance after 24 hours

SMILES | Corrosiveness: Aluminum sash frame (with anodized film)
O=C([O-])CC(O)(CC(=O)[O-])C(=O)[O-].[Na+].[Na+].[Na+] [Sodium citrate] | o
N [ammonia] | o
[Na+].[OH-] [Sodium hydroxide] | xx

test: as above; parameters: key: No change; ?: Slight discoloration; x: Discoloration; xx: Dissolution; conditions: not given; remark: another data set of the same source
Protocol: For comparison with the aqueous solution shown in Table 3, a slurry liquid obtained by adding 10 parts by weight of water to 20 parts by weight of ordinary Portland cement was allowed to contact with an aluminum plate (A1050) not subjected to the surface treatment and an aluminum sash frame coated with a sulfuric acid anodized film at the spot, and a change in the appearance after 24 hours was observed.

SMILES | Corrosiveness: Aluminum plate (A1050) (no surface treatment)
O=C([O-])[O-].[K+].[K+] [Potassium carbonate] | x
[K+].[OH-] [Potassium hydroxide] | xx
[Ca+2].[OH-].[OH-] [Calcium hydroxide] | x

same assay, conditions: spot contact, appearance after 24 hours

SMILES | Corrosiveness: Aluminum plate (A1050) (no surface treatment)
O=C([O-])CC(O)(CC(=O)[O-])C(=O)[O-].[Na+].[Na+].[Na+] [Sodium citrate] | o
N [ammonia] | x
[Na+].[OH-] [Sodium hydroxide] | xx
